From PMC10031314
These are yes or no findings as the source states them, for the method shown. In cells and extracts the contact can be indirect. Some binding calls cover weakened binding; strength is not graded here.

Molecular target: T1, β-catenin (Hydra) (Hydra vulgaris Ind-Pune (endogenous in polyps)) (UniProt Q25100)
T1 sequence: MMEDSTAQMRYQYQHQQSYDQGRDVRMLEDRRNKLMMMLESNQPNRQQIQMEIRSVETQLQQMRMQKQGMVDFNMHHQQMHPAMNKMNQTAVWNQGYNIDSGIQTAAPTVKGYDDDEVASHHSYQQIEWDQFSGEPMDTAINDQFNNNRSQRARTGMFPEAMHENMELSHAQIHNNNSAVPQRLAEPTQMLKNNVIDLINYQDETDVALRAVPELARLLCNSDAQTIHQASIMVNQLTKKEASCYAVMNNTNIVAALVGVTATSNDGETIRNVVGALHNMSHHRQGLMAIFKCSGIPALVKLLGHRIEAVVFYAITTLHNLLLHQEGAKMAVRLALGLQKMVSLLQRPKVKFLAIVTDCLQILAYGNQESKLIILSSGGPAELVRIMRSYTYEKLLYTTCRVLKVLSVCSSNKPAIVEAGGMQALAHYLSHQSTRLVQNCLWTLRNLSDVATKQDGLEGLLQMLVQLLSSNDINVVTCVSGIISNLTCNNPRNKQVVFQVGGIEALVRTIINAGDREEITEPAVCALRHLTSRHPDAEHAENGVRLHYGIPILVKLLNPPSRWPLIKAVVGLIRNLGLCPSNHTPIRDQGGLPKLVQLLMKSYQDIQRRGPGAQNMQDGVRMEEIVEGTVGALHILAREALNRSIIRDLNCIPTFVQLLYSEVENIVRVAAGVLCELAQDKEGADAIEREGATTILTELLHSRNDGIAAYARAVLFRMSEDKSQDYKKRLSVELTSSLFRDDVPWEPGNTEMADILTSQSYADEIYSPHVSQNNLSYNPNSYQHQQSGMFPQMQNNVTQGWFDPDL
Assay: co-IP; 700 μg Hydra polyp lysate in RIPA buffer; 5 μg α-active-β-catenin antibody overnight at 4°C, Dynabeads M-280 sheep anti-mouse IgG, three RIPA washes; Western blot with α-SETD8 antibody; normal mouse IgG as control

- binding: binds
B1: Hydra SETD8 protein (enzyme, UniProt T2M4F1 1-269)
chain: MENHQENKLLVTKSIRSCERLEEKKESFKVDSPVKGVTNLKVKSIIKNTHQLKSNKDINQPKSIKNTTKNVQKKSSNEKVRKVCDMENRPEKVQTTITQHFQVRRSERKVKTMAKNDAKLNLEKIILSGIEDGLEVRLIEEKGRGVFTKQSLKKGDLVCEYAGDLISLKEALQREKDYEKNPELGCYMYFFDYKDKKYCVDATKETGRLGRLLNHSKTNSNVCTKLFPIGNTPHLILVAQKDIACDQELLYDYGDRSKRSIESHPWLKL
